Experimental data: PMC2788414
These are yes or no findings as the source states them, for the method shown. Binding seen in cells or lysates may run through a third protein. Some binding calls cover weakened binding; strength is not graded here.

Chains of the proteins cited; added tags and fusions are not shown.
UniProt P84022: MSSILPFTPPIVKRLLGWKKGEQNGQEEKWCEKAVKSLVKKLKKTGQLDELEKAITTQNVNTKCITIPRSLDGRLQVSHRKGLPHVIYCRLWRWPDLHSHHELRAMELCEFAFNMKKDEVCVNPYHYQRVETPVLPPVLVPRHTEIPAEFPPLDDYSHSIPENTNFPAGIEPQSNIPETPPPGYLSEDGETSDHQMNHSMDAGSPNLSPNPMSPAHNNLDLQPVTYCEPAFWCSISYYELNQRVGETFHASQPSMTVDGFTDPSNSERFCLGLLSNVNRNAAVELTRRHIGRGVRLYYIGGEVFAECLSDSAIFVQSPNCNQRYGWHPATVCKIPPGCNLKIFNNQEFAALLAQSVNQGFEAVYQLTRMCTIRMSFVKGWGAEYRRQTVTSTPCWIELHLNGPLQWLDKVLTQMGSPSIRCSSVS
UniProt P48432: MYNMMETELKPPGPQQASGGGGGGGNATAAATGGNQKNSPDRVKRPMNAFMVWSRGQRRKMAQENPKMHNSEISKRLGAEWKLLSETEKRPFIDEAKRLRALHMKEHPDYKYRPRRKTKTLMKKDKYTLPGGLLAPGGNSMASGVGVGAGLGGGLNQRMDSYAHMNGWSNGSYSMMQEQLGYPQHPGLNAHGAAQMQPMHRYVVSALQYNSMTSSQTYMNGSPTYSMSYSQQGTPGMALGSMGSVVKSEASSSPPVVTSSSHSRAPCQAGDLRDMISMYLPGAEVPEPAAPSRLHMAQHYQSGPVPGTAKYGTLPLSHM

Molecular target: FLAG-Smad3 (UniProt P84022)
Assay: co-IP; lysates of HBECs co-transfected with Sox2-V5 and FLAG-Smad3, NETN buffer (20 mM Tris pH 8.0, 100 mM NaCl, 1 mM EDTA, 0.5% NP-40), 4°C; precipitated with anti-FLAG M2 affinity gel or with rabbit anti-Sox2 on Protein A/G beads (normal rabbit IgG as control); blots with anti-FLAG-HRP and anti-V5-HRP

For Sox2-V5 (from UniProt P48432 1-319), the binding was “binds”.
